# Patent US20260265538A1, “Aqueous Industrial Product Stabilized Against Microbial Contamination” (Thor GmbH, priority 2023, published 2026)
# This continues a long series; more values of the same kind are listed elsewhere.
# System: Bacteria mixture 1 (Pseudomonas genus)
# Assay: Repetitive stress test of paints with bacteria mixture 1, semiquantitative evaluation (examples 2 and 3)
# Assay type: cell-based
# Set-up: key: 0: No growth; Minimal growth, 1 to 10 colonies visible over the entire streak; 2: Light growth, maximum 100 colonies; Moderate growth, maximum 300 to 400 colonies; Uniform growth, >400 colonies, single colonies still clearly recognizable; 5: Heavy growth, too many colonies to count, but no growth over the entire streak; 6: Full growth, barely any single colonies still apparent, growth over the entire streak
# Settings: Table 3, 6 d
# Source text: Paints 1 to 3 were mixed and homogenized with various concentrations of the guanidinium salts to be tested.
# The batches obtained of the paint thus prepared were inoculated repeatedly with a mixture of different wild-type bacterial strains that are of practical relevance with regard to contamination. These bacteria had previously been isolated from commercial emulsion paints containing conventional preservatives (bacteria mixture 1, Pseudomonas genus), which are microbially contaminated in practice, and commercial so-called preservative-free alkaline emulsion paints (bacteria mixture 2, alkaliphilic bacteria of the Nesterenkonia & Alkalibacterium genus), which are microbially contaminated in practice.
# • Pseudomonas spp. (Pseudomonas oleovorans group) DSM 33933 • Pseudomonas aeruginosa DSM 33935 • Pseudomonas oleovorans DSM 33936 • Pseudomonas putida DSM 33937 • Pseudomonas aeruginosa DSM 33938
# The inoculum was added to the respective sample in each inoculation at 2% (v/w) as a fresh cell suspension in a physiological saline solution (0.9% NaCl). The cell count of the added inoculum in example 1 was 10^5/ml, in examples 2 to 5 10^9/ml, and in example 6 10^6/ml, each in equal portions consisting of the individual bacterial strains. The cell suspension was produced by growing the individual bacteria at 30° C. for 24 h in liquid culture on a shaker. The medium used to grow the bacteria from bacteria mixture 1 was Müller-Hinton liquid medium. Bacteria from bacteria mixture 2 were grown in Müller-Hinton liquid medium that had been adjusted to pH 9.5-9.7 with an alkaline buffer solution beforehand. After growing, the individual liquid cultures were centrifuged, and the cells were resuspended in physiological saline solution. In order to adjust the mixture to the desired cell count, the individual bacteria suspensions, if necessary, were diluted accordingly before being combined with saline solution. The cell count of the inoculum was determined in each case by chamber counting.
# In examples 2 to 6, what is called a repetitive stress test with bacteria was conducted by inoculating the samples at particular time intervals repeatedly with a bacteria suspension having a cell count of 10^9/ml (2% v/w) and monitoring the evolution of the bacteria by a semiquantitative evaluation method. After each inoculation, the samples were incubated at 30° C. for 6 days (bacteria mixture 1 and 3) or 7 and 14 days (bacteria mixture 2), and after these periods bacterial infestation was evaluated semiquantitatively in each case. For this purpose, an aliquot was taken from each sample after homogenization using a sterile plastic inoculation loop (10 μl) and streaked evenly on agar plates (bacteria mixture 1 and 3 on tryptic soy agar, bacteria mixture 2 on DSMZ 31 alkaline nutrient agar). The streaked agar plates were then incubated at 30° C. for 48 h (bacteria mixture 1 and 3) or 5 to 7 days (bacteria mixture 2). After incubation, the bacterial colonies grown on the agar plates were visually evaluated and quantified according to the following scheme:
# A total of 3 inoculation cycles was performed in each repetitive stress test.
# Inoculation 2% (w/v) with Bacteria Mixture 1, 10^9 CFU/ml
# 2% (w/v) Inoculation with Bacteria Mixture 1, […]
compound,measurement,setting,value
N=C(N)N.N=C(N)N.O=C(O)O [guanidine carbonate],Bacterial growth after inoculation,"Paint 1, +0.1% guanidine carbonate (656 ppm guanidine), pH 9.1, 1. inoculation",6
same,Bacterial growth after inoculation,"Paint 1, +0.1% guanidine carbonate (656 ppm guanidine), pH 9.1, 2. inoculation",6
same,Bacterial growth after inoculation,"Paint 1, +0.1% guanidine carbonate (656 ppm guanidine), pH 9.1, 3. inoculation",6
same,Bacterial growth after inoculation,"Paint 1, +0.125% guanidine carbonate (820 ppm guanidine), pH 9.3, 1. inoculation","3 (Moderate growth, maximum 300 to 400 colonies)"
same,Bacterial growth after inoculation,"Paint 1, +0.125% guanidine carbonate (820 ppm guanidine), pH 9.3, 2. inoculation",5
same,Bacterial growth after inoculation,"Paint 1, +0.125% guanidine carbonate (820 ppm guanidine), pH 9.3, 3. inoculation",6
same,Bacterial growth after inoculation,"Paint 1, +0.15% guanidine carbonate (984 ppm guanidine), pH 9.4, 1. inoculation",0
same,Bacterial growth after inoculation,"Paint 1, +0.15% guanidine carbonate (984 ppm guanidine), pH 9.4, 2. inoculation",0
same,Bacterial growth after inoculation,"Paint 1, +0.15% guanidine carbonate (984 ppm guanidine), pH 9.4, 3. inoculation",6
same,Bacterial growth after inoculation,"Paint 1, +0.175% guanidine carbonate (1148 ppm guanidine), pH 9.4, 1. inoculation",0
same,Bacterial growth after inoculation,"Paint 1, +0.175% guanidine carbonate (1148 ppm guanidine), pH 9.4, 2. inoculation",0
same,Bacterial growth after inoculation,"Paint 1, +0.175% guanidine carbonate (1148 ppm guanidine), pH 9.4, 3. inoculation",6
same,Bacterial growth after inoculation,"Paint 1, +0.2% guanidine carbonate (1312 ppm guanidine), pH 9.6, 1. inoculation",0
same,Bacterial growth after inoculation,"Paint 1, +0.2% guanidine carbonate (1312 ppm guanidine), pH 9.6, 2. inoculation",0
same,Bacterial growth after inoculation,"Paint 1, +0.2% guanidine carbonate (1312 ppm guanidine), pH 9.6, 3. inoculation",0
same,Bacterial growth after inoculation,"Paint 1, +0.3% guanidine carbonate (1968 ppm guanidine), pH 9.7, 1. inoculation",0
same,Bacterial growth after inoculation,"Paint 1, +0.3% guanidine carbonate (1968 ppm guanidine), pH 9.7, 2. inoculation",0
same,Bacterial growth after inoculation,"Paint 1, +0.3% guanidine carbonate (1968 ppm guanidine), pH 9.7, 3. inoculation",0
same,Bacterial growth after inoculation,"Paint 2, +0.1% guanidine carbonate (656 ppm guanidine), pH 8.9, 1. inoculation",6
same,Bacterial growth after inoculation,"Paint 2, +0.1% guanidine carbonate (656 ppm guanidine), pH 8.9, 2. inoculation",6
same,Bacterial growth after inoculation,"Paint 2, +0.1% guanidine carbonate (656 ppm guanidine), pH 8.9, 3. inoculation",6
same,Bacterial growth after inoculation,"Paint 2, +0.125% guanidine carbonate (820 ppm guanidine), pH 9.0, 1. inoculation",6
same,Bacterial growth after inoculation,"Paint 2, +0.125% guanidine carbonate (820 ppm guanidine), pH 9.0, 2. inoculation",6
same,Bacterial growth after inoculation,"Paint 2, +0.125% guanidine carbonate (820 ppm guanidine), pH 9.0, 3. inoculation",6
same,Bacterial growth after inoculation,"Paint 2, +0.15% guanidine carbonate (984 ppm guanidine), pH 9.0, 1. inoculation",6
same,Bacterial growth after inoculation,"Paint 2, +0.15% guanidine carbonate (984 ppm guanidine), pH 9.0, 2. inoculation",6
same,Bacterial growth after inoculation,"Paint 2, +0.15% guanidine carbonate (984 ppm guanidine), pH 9.0, 3. inoculation",6
same,Bacterial growth after inoculation,"Paint 2, +0.175% guanidine carbonate (1148 ppm guanidine), pH 9.1, 1. inoculation",0
same,Bacterial growth after inoculation,"Paint 2, +0.175% guanidine carbonate (1148 ppm guanidine), pH 9.1, 2. inoculation",0
same,Bacterial growth after inoculation,"Paint 2, +0.175% guanidine carbonate (1148 ppm guanidine), pH 9.1, 3. inoculation",6
same,Bacterial growth after inoculation,"Paint 2, +0.2% guanidine carbonate (1312 ppm guanidine), pH 9.1, 1. inoculation",0
same,Bacterial growth after inoculation,"Paint 2, +0.2% guanidine carbonate (1312 ppm guanidine), pH 9.1, 2. inoculation",0
same,Bacterial growth after inoculation,"Paint 2, +0.2% guanidine carbonate (1312 ppm guanidine), pH 9.1, 3. inoculation",6
same,Bacterial growth after inoculation,"Paint 2, +0.25% guanidine carbonate (1640 ppm guanidine), pH 9.1, 1. inoculation",0
same,Bacterial growth after inoculation,"Paint 2, +0.25% guanidine carbonate (1640 ppm guanidine), pH 9.1, 2. inoculation",0
same,Bacterial growth after inoculation,"Paint 2, +0.25% guanidine carbonate (1640 ppm guanidine), pH 9.1, 3. inoculation",6
same,Bacterial growth after inoculation,"Paint 2, +0.3% guanidine carbonate (1968 ppm guanidine), pH 9.2, 1. inoculation",0
same,Bacterial growth after inoculation,"Paint 2, +0.3% guanidine carbonate (1968 ppm guanidine), pH 9.2, 2. inoculation",0
same,Bacterial growth after inoculation,"Paint 2, +0.3% guanidine carbonate (1968 ppm guanidine), pH 9.2, 3. inoculation",0
